In PubChem BioAssay AID493014 (National Center for Advancing Translational Sciences (NCATS), 2011) one finds AC50 data, which are given here for 59 compounds.

Molecules are shown by their SMILES. The list shows a part of the results. These are further read-outs of the screen, such as a control signal, another cell line or another target. No call is given for them. The list favours compounds with an active or inconclusive main result. Words in brackets tell the shape of the fitted curve; partial curves, single points and poor fits give uncertain potencies.

The test in a line: qHTS Assay to Find Inhibitors of Chronic Active B-Cell Receptor Signaling. The settings on record: ABC-DLBCL IkBa-CBG/CBR reporter, luminescence ratio (green luciferase fused to IkBa over red control in TMD8 lymphoma cells), 4 h. Summed up: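 Cell line TMD8 (human ABC DLBCL), stably expressing tet-inducible CBG68-IkBa fusion and CBR; IMDM/0.5% FBS; cpd up to 46 uM; dox induction, 4 h, 37C/5% CO2; dual luminescence; green/red ratio; MG132 control.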

The mark [1] stands for this setting: measured here: CBR red luminescence, cell number.
[2] abbreviates: measured here: IkBa-CBG green luminescence.

As to `C=CCn1c(=O)c(C(=O)Nc2ccccc2C)c(O)c2ccccc21`, the AC50 under setting [1] is 0.631 µM [rising, full curve, poor fit]. With `COc1cc2sc(-c3ccccc3OC)c(-c3ccc(O)cc3)c2cc1OC`, the AC50 reads like this: under setting [1], 23.1 µM [falling, single point]; under setting [2], 11.6 µM [rising, partial curve, poor fit]. Regarding `CCOC(=O)CN1CC23C=CC(O2)C(C(=O)NCc2ccc(C)cc2)C3C1=O` (configuration not stated), the concentration at half-maximal activity (AC50) under setting [1] was 8.91 µM [rising, partial curve, poor fit]. Still for that read-out and setting: to `Cc1snc(SCc2ccc(Cl)cc2)c1C#N` belongs 15.8 µM [rising, partial curve, poor fit]. As for `Cn1c(=O)n(C)c2cc(NS(=O)(=O)c3ccc(Br)s3)ccc21`, the half-maximal activity concentration (AC50) was 11.2 µM [rising, partial curve, poor fit] under setting [1] and 11.2 µM [falling, partial curve, poor fit] under setting [2]. In the case of `C[C@@H](CN1C2=NC[C@H](Cc3ccccc3)N2C[C@H]1Cc1ccc(O)cc1)NC(=O)CCC1CCCCC1`, the AC50 by setting is: under setting [1], 5.62 µM [falling, partial curve]; under setting [2], 28.2 µM [rising, partial curve, poor fit]. With `Nn1c(SCC(=O)Nc2ccc(F)c(F)c2)nnc1C1CCCCC1`, under setting [1], the AC50 was 35.5 µM [falling, single point].

As for `COc1ccc(-c2c(C)c3ccc(O)cc3oc2=O)cc1`, the AC50 by setting is: under setting [1], 1.41 µM [rising, partial curve, poor fit]; under setting [2], 7.94 µM [falling, partial curve]. For the compound `COc1ccccc1CNCC(O)(c1ccc(Cl)cc1)c1ccc(Cl)cc1`, the AC50 under setting [1] was 17.8 µM [falling, single point] and the AC50 under setting [2] was 20 µM [rising, partial curve, poor fit]. Regarding `Cn1cc(S(=O)(=O)N2CCOCC2)cc1C(=O)Nc1cccc(Cl)c1`, the AC50 under setting [1] is 11.2 µM [falling, single point]. The same measure, in the same setting: to `O=C(c1ccccc1)c1ccc2nc(N3CCCCC3)c3nncn3c2c1` belongs 2.91 µM [rising, partial curve, poor fit]; to `COc1ccc(CSc2cccc3cccnc23)cc1[N+](=O)[O-]`, 29.1 µM [rising, single point]; to `O=C(Nc1ccccc1F)Nc1cccc2ccc(O)cc12`, 14.1 µM [falling, partial curve]. Still for that read-out and setting: for `COc1ccccc1NC(=O)CSc1nc2c(sc3ccccc32)c(=O)n1CCN(C)C` the value was 12.6 µM [falling, partial curve, poor fit]; for `O=C1NC2(CCCCCC2)Cc2ccccc21`, 29.1 µM [rising, single point]. Still for that read-out and setting: for `CCOC(=O)[C@H]1[C@H]2COc3cc(OC)ccc3[C@@H]2N2C(=O)CN(CCc3c[nH]c4ccccc34)C(=O)[C@@]12C` the value was 29.1 µM [falling, single point]; for `COc1cccc(/C=C(/C#N)c2ccc(F)cc2)c1OCc1cccc(C(=O)O)c1`, 6.51 µM [rising, single point]; for `CN(C(=O)CSc1nncn1C)C1CCCN(Cc2ccccc2F)C1` (configuration not stated), 12.6 µM [falling, partial curve, poor fit]. `CCCNC(=O)c1csc(Nc2cccc3ccccc23)n1`: the AC50 under setting [1] is 11.2 µM [falling, partial curve]. Still for that read-out and setting: to `CNC(=O)COc1ccccc1C(=O)Nc1ccc2c(c1)oc1ccccc12` belongs 11.6 µM [falling, partial curve]. The same measure, in the same setting: to `Cc1ccc(NC(=O)c2cc(N(C)C)ccc2[P+](=O)O)cc1` belongs 1.58 µM [rising, full curve, poor fit].

On to `C=C1C(=O)O[C@@H]2C[C@@H](C)[C@@H]3C=CC(=O)[C@@]3(C)[C@@H](OC(C)=O)[C@H]12`, for which the AC50 is 1.41 µM [falling, full curve] under setting [1] and 6.31 µM [rising, full curve, poor fit] under setting [2]. Turning to `COc1ccc(CC(=O)OCc2cc(=O)n3cc(Br)ccc3n2)cc1OC`, the AC50 under setting [1] was 0.355 µM [rising, full curve, poor fit]. Still for that read-out and setting: for `Cc1ccc2nc(-c3ccccc3Cl)cc(C(=O)Nc3cc(C)on3)c2c1` the value was 10 µM [falling, partial curve]. The same measure, in the same setting: to `O=C(CN1C(=O)c2ccccc2S1(=O)=O)NCCc1ccccc1` belongs 0.0891 µM [falling, full curve, poor fit]. On the same count and under the same terms, for `O=C(C(Sc1ccccc1)c1ccccc1)N1CCOCC1` (configuration not stated) the value was 6.51 µM [falling, partial curve, poor fit]; for `CC1CCC(C(C)C)C(OC(=O)COC(=O)c2ccc(N)cc2)C1` (configuration not stated), 1.3 µM [rising, full curve, poor fit]; for `CCn1c(SCC#N)nc2ccccc2c1=O`, 35.5 µM [falling, single point].

As for `CCOC(=O)C1=C(C)N=C2SC(C(=O)OC)=CC(=O)N2C1c1ccc(F)cc1` (configuration not stated), the AC50 under setting [1] is 6.31 µM [falling, partial curve, poor fit]. `O=C(O)c1ccccc1/C=N/NC(=S)NC1CCCCC1`: under setting [1], the AC50 was 1.12 µM [rising, partial curve, poor fit]. Still for that read-out and setting: to `COC(=O)c1ccc(C)c(NC(=O)CN2C(=O)c3ccccc3S2(=O)=O)c1` belongs 18.4 µM [rising, single point]. As to `CC(CSc1nc2ccccc2s1)Cn1c(N2CCCC2)nc2c1c(=O)[nH]c(=O)n2C` (configuration not stated), the concentration at half-maximal activity (AC50) under setting [1] was 6.51 µM [rising, partial curve, poor fit]. The same measure, in the same setting: to `CCN(c1ccccc1)S(=O)(=O)c1ccc(C(=O)NCC(=O)Nc2ccc(F)c(F)c2F)cc1` belongs 7.31 µM [falling, single point]. Same read-out and setting: to `O=C1OCCN1C(=O)[C@H]1[C@H](c2ccc(Cl)cc2)C(c2ccc(F)cc2)=NN1c1ccccc1` belongs 20.6 µM [rising, partial curve, poor fit]; to `O=C(Nc1cccc([N+](=O)[O-])c1)Nc1cccc([N+](=O)[O-])c1`, 1.41 µM [rising, full curve, poor fit]; to `CC(C)n1cnc2c(NCc3ccccc3)cc(OCC3CCN(C)CC3)cc21`, 29.1 µM [falling, single point]. Same read-out and setting: to `Oc1ccc2ccccc2c1/C=N/c1nccs1` belongs 25.1 µM [falling, single point]. As to `CCOC(=O)Cc1csc(NC(=S)NC(=O)c2cc(OC)c(OC)c(OC)c2)n1`, under setting [1], the concentration at half-maximal activity (AC50) was 22.4 µM [falling, single point]. As for `O=C(c1ccc(S(=O)(=O)Cc2ccccc2F)c([N+](=O)[O-])c1)N1CCCCCC1`, the AC50 is, setting by setting: under setting [1], 14.1 µM [falling, partial curve, poor fit]; under setting [2], 2 µM [rising, partial curve, poor fit].

Take `COc1ccc(OC)c(Nc2c3ccccc3nc3ccccc23)c1`: the AC50 under setting [1] is 2.82 µM [falling, partial curve, poor fit]. Same read-out and setting: to `Cc1cc(C(F)F)n2ncc(C(=O)NCCc3ccccc3Cl)c2n1` belongs 5.8 µM [rising, partial curve]; to `COc1ccc(OC)c(-n2cc3c(=O)n(C)c(=O)n(C)c3c2)c1`, 20 µM [falling, single point]; to `COc1cc(C(=O)Nc2nc(OC)c(-c3ccccc3)c(OC)n2)cc(OC)c1OC`, 12.6 µM [rising, single point]. In the case of `O=C(Nc1ccc(F)cc1F)c1ccc(-n2cccn2)nc1`, the AC50 under setting [1] was 15.8 µM [falling, single point]. On the same count and under the same terms, to `CCOc1ccc(NS(=O)(=O)c2ccc(OC)c(C)c2)cc1` belongs 20.6 µM [falling, single point]; to `CCN(CC)c1ccc(/C=N/NC(=O)c2ccc3nc[nH]c3c2)cc1`, 15.8 µM [falling, partial curve]; to `COc1ccccc1/C=C1\SC(=S)N(CCC(=O)N2CCN(C)CC2)C1=O`, 3.55 µM [falling, full curve]. `CC1(C)Cc2c(cnn2-c2ccccc2)-c2c1c1ccccc1n2CC(O)CCl` (configuration not stated): the AC50 was 6.51 µM [falling, full curve] under setting [1] and 20.6 µM [rising, single point] under setting [2]. Take `COc1ccccc1N1CCN(c2nc(N)c(C#N)c(CC#N)c2C#N)CC1`: the AC50 under setting [1] was 3.16 µM [rising, partial curve, poor fit]. Same read-out and setting: to `O=C(Nc1ccc2c(c1)OCCO2)c1ccc(Cl)c([N+](=O)[O-])c1` belongs 16.4 µM [falling, single point]. On the same count and under the same terms, for `Cc1ccc(NC(=O)CN2C(=O)NC3(CCCCCCC3)C2=O)cc1C` the value was 14.6 µM [falling, partial curve].

For `Cc1ccc(NS(=O)(=O)c2ccc(C(=O)NCc3cccnc3)cc2)cc1`, the AC50 under setting [1] is 7.08 µM [falling, partial curve]. Regarding `Cc1ccc(-n2cccc2/C=C2/C(=N)N3C(=NC2=O)SN=C3S(C)(=O)=O)cc1Cl`, the AC50 under setting [2] was 18.4 µM [rising, partial curve, poor fit]. As to `Cc1ccccc1-n1nc2c(c1NC(=O)C(C)(C)C)CS(=O)(=O)C2`, the concentration at half-maximal activity (AC50) under setting [1] is 0.112 µM [rising, full curve, poor fit]. For the compound `O=C(O)CN1CCN(Cc2ccc(Cl)cc2)C1=O`, under setting [1], the AC50 was 6.51 µM [rising, partial curve, poor fit]. For `COc1cccc(N/N=C/c2cccc(Br)c2O)c1`, the AC50 under setting [1] was 1.12 µM [falling, partial curve, poor fit].

Turning to `COc1ccc(C(=O)/C=C/Sc2nc3ccccc3o2)cc1`, the AC50 under setting [1] is 12.6 µM [rising, single point]. Still for that read-out and setting: for `CCC(CC)C(=O)N1CCN(Cc2nc3ccccc3c(=O)[nH]2)CC1` the value was 35.5 µM [falling, single point]; for `Cc1ccc(CCNC(=O)C2CCCN(S(=O)(=O)c3cccs3)C2)cc1` (configuration not stated), 0.731 µM [falling, single point].
